Source: patent US20220017573A1

Columns and labels:
[1] = system: ScuR (Streptococcus salivarius HSISS4); test: EMSA; details: purified recombinant protein, label: 5'-Cy3
ComR = test: EMSA; details: with sComS, purified recombinant protein, protein details: C-terminal StrepTagII, expressed in E. coli, label: 5'-Cy3
[2] = system: SarF (Streptococcus salivarius HSISS4); test: EMSA; details: purified recombinant protein, label: 5'-Cy3
[3] = system: ComR (Streptococcus salivarius HSISS4); test: activity in cells; details: luxAB reporter; mutation bolsters ComRS-mediated activation; protein in cells; variant of PcomX probe; only the site is given

Sequence: CTCCATAGTGACATTTATGTCACTATTTTT (double strand) [PslvX probe]
- binding result ([1]; with sBI7, less stable complex (smear), weaker than ComR-sComS): binds
- binding result (ComR; stronger than ScuR-sBI7): binds

Sequence: TTTTATAGTGACATATATGTCGCTATTTTA (double strand) [PcomX probe]
- binding result ([2]; negative control probe): no binding
- binding result ([1]; negative control probe): no binding

Sequence: TTTTATAGTGACATATATGTCACTATTTTA (double strand) [PcomX G→A probe]
- activity on this sequence [3]: active
- binding result ([2]; variant of PcomX probe): no binding
- binding result ([1]; palindrome restored by G→A, variant of PcomX probe): binds

Sequence: TAACGAGTCAAAGTGACATAGATGTCCTTTTGATTCGTTA (double strand) [PsptA probe]
- binding result ([2]; binding increases progressively with sBI7 peptide): binds
- binding result ([1]; with peptide LAFWDSLG, 4 uM ScuR): binds
- binding result ([1]; with peptide LAFWDSLGLLL, only at extreme peptide concentration, 4 uM ScuR): binds more weakly
- binding result ([1]; with sBI7 peptide, strongest ScuR affinity, doublet at high concentration): binds
- binding result (ComR; binds though not transactivating in vivo): binds

Sequence: AATGGTGGTGACATAAATGTCACTACTTTT (double strand) [PcomS probe]
- binding result ([1]; with sBI7, weakest ScuR affinity, smear): binds more weakly
- binding result (ComR; stronger than ScuR-sBI7): binds

The exact form of at least one protein or probe is not confirmed. For some assays here: A negative result means that nothing was seen under these conditions. For some assays here: The comparison behind a weaker result is the experiment's own reference, which may not be listed here.
